{"source": "patent US8957082B2", "about": "“Tetrahydropyrrolopyrimidinediones and their use in therapy” (Chiesi Farmaceutici S.p.A, priority 2006, dated 2015)", "molecular_target": "T1, human neutrophil elastase (HNE) (Homo sapiens, UniProt P08246)", "T1 sequence (P08246 30-267)": "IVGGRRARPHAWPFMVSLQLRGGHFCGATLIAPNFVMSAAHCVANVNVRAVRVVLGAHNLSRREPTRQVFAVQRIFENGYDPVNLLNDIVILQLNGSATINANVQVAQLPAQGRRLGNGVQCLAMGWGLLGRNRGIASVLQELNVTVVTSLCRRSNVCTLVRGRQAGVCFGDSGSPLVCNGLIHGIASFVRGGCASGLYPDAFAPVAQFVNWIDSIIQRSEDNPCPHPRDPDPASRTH", "assay": "HNE induced lung haemorrhage in the rat", "type": "in vivo", "details": "male Sprague Dawley rats, compound dosed locally to the lung (i.t. or i.n.) before HNE, blood in BALF one hour post HNE challenge", "source_text": "HNE Induced Lung Haemorrhage in the Rat\nInstillation of human neutrophil elastase (HNE) into rat lung causes acute lung damage. The extent of this injury can be assessed by measuring lung haemorrhage. Male Sprague Dawley rats (175-220 g) were obtained from Harlan UK Ltd., full barrier-bred and certified free from specified micro-organisms on receipt. Animals were weighed and randomly assigned to treatment groups (7-12 animals per group).\nThe vehicle used was 1% DMSO/Saline. Inhibitors were dissolved in 1% DMSO before the addition of 0.9% saline.\nAnimals in each study used to determine the efficacy of the elastase inhibitors delivered locally to the lung by a variety of routes. […]\nOnce defrosted 100 μl of each lysed cell suspension was placed into a separate well of a 96 well flat bottomed plate. […] The OD of the contents of each well was measured at 415 nm using a spectramax 250 (Molecular devices). […]\nThe amount of blood in each experimental sample was calculated by comparison to the standard curve. Data were then analysed as below:\n1) The mean OD for duplicates was calculated […]\n3) Data were assessed to evaluate the normality of distribution.", "note": "At least one structure is not confirmed: it was looked up by name or label, or the drawing left a doubt. Some compounds share one wording; it may come from a single statement.", "data": [{"compound": "CCN1CC2=C(C1=O)[C@@H](c1ccc(C#N)cc1)N(CCC[N+](C)(C)CCCN1C(=O)N(c3cccc(C(F)(F)F)c3)C3=C(C(=O)N(CC)C3)[C@H]1c1ccc(C#N)cc1)C(=O)N2c1cccc(C(F)(F)F)c1", "note": "[Example 26]", "values": [{"measurement": "reducing the quantity of blood haemorrhaged relative to control", "result": "effective in reducing the quantity of blood haemorrhaged"}]}, {"compound": "CN(C)CCNC(=O)CN1C(=O)N(c2cccc(C(F)(F)F)c2)C2=C(C(=O)N(CCC[N+](C)(C)CCCN3CC4=C(C3=O)[C@@H](c3ccc(C#N)cc3)N(CC(=O)NCCN(C)C)C(=O)N4c3cccc(C(F)(F)F)c3)C2)[C@H]1c1ccc(C#N)cc1", "note": "[Example 42]", "values": [{"measurement": "reducing the quantity of blood haemorrhaged relative to control", "result": "effective in reducing the quantity of blood haemorrhaged"}]}]}
